Binding data for two substances are collected here from paper PMC10950863.

Protein sequences, listed by entry. Tags and fused reporters are not part of them. Residues count along the entry.
N-terminal domain of human DNMT1 (residues 16–134), DNMT1^NL (P26358, residues 16-134): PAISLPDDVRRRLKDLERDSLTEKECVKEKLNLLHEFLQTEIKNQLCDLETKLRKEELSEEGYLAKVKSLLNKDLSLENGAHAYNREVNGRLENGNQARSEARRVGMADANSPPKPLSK
N-terminal domain of human DNMT1 (residues 16–93), DNMT1^N (P26358, residues 16-93): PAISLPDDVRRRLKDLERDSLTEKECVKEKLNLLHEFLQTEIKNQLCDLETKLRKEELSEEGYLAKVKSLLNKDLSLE

These are yes or no findings as the source states them, for the method shown.

Test [1] deals with N-terminal domain of human DNMT1 (residues 16–134), DNMT1^NL (human) (UniProt P26358). The experiment in a line: NMR 15N relaxation (rotational correlation time from R1 and R2); 15N-labelled protein in solution, 25 °C, 20 mM MES/Bis-Tris, 50 mM NaCl, pH 6.0; oligomeric state from τc; both purified.
Test [2] has as its target N-terminal domain of human DNMT1 (residues 16–93), DNMT1^N (human) (UniProt P26358). Described as above.
The target is the same in test [3]. Kind of test: SAXS; DNMT1^N in solution at 1, 2 and 3 mg/ml, no concentration dependence; Rg, Dmax and fit to the NMR structure; both purified.

On to “N-terminal domain of human DNMT1 (residues 16–134), DNMT1^NL (from UniProt P26358 16-134) (domain or fragment)”, for which, in test [1], the binding result was “no binding”. For the substance “N-terminal domain of human DNMT1 (residues 16–93), DNMT1^N (from UniProt P26358 16-93) (domain or fragment)”, the binding entry in test [2] is “no binding”; in test [3], “no binding (tested: 1, 2, and 3 mg/ml)”.
